Measured values taken from patent US20180282403A1, “AGENTS FOR REDUCING THE ACTIVITY OF GDF15” (GENAGON THERAPEUTICS AB, priority 2015, published 2018).
No constants are given. Whether binding was seen depends on the method and setting. For some of these results: In cells and extracts the contact can be indirect. Some results given as binding are weak or reduced against the parent protein; the word gives no strength.

T1: Growth and differentiation factor 15 (GDF15) (UniProt Q99988 197-308, limits assumed)
T1 construct: Purchased GDF15 added to cells, pull-downs, peptide arrays and ELISA; also called MIC1
T1 sequence (looked up): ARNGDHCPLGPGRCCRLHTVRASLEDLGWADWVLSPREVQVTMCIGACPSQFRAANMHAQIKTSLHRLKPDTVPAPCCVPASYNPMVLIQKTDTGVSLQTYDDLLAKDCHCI


molecular target: T1, Growth and differentiation factor 15 …; assay: biotin-peptide pull-down, Western blot

| Binder | binding |
| --- | --- |
| GALFWEQHDLVYGDWTS (N-terminal biotin) [Biotin-… (peptide from extracellular domain of CLPTM1)] | binds |
| GEIKYDFLYEKEHICCLEEWTS (N-terminal biotin) [Biotin-… (Extracellular domain 3 from QRFPR)] | binds |

molecular target: T1, Growth and differentiation factor 15 …; assay: condition: cut-off of approximately greater than or equal to 0.1 OD; GDF15 at 100 ng/ml; ELISA, biotinylated peptide in streptavidin wells

| Binder | binding |
| --- | --- |
| RRRFQKTKNLLTGETEADPEG (biotinylated (position not given); C-terminal glycine not present in CLPTM1) [CLPTM1 peptide … (SEQ ID NO: 260)] | no binding |
| NDYWNLQKDYYPINESLASLG (biotinylated (position not given); C-terminal glycine not present in CLPTM1) [CLPTM1 peptide … (SEQ ID NO: 264)] | no binding |
| PLRVSFCPLSLWRWQLYAAQG (biotinylated (position not given); C-terminal glycine not present in CLPTM1) [CLPTM1 peptide … (SEQ ID NO: 265)] | no binding |
| STKSPWNFLGDELYEQSDEEG (biotinylated (position not given); C-terminal glycine not present in CLPTM1) [CLPTM1 peptide … (SEQ ID NO: 266)] | no binding |
| YEQSDEEQDSVKVALLETNPG (biotinylated (position not given); C-terminal glycine not present in CLPTM1) [CLPTM1 peptide … (SEQ ID NO: 267)] | no binding |
| LWRWQLYAAQSTKSPWNFLGG (biotinylated (position not given); C-terminal glycine not present in CLPTM1) [CLPTM1 peptide … (SEQ ID NO: 268)] | no binding |
| WQVIKGVLFRIFIIWAISSWG (biotinylated (position not given); C-terminal glycine not present in CLPTM1) [CLPTM1 peptide … (SEQ ID NO: 271)] | no binding |
| RNLFPKDTLMNLHVYISEHEG (biotinylated (position not given); C-terminal glycine not present in CLPTM1) [CLPTM1 peptide … (SEQ ID NO: 272)] | no binding |
| FTDFNATSALFWEQHDLVYGG (biotinylated (position not given); C-terminal glycine not present in CLPTM1) [CLPTM1 peptide … (SEQ ID NO: 273)] | no binding |
| AAAQEADGARSAVVAAGGGSG (biotinylated (position not given); C-terminal glycine not present in CLPTM1) [CLPTM1 peptide … (SEQ ID NO: 250)] | no binding |
| SGQVTSNGSIGRDPPAETQPG (biotinylated (position not given); C-terminal glycine not present in CLPTM1) [CLPTM1 peptide … (SEQ ID NO: 251)] | no binding |
| QNPPAQPAPNAWQVIKGVLFG (biotinylated (position not given); C-terminal glycine not present in CLPTM1) [CLPTM1 peptide … (SEQ ID NO: 252)] | no binding |
| RIFIIWAISSWFRRGPAPQDG (biotinylated (position not given); C-terminal glycine not present in CLPTM1) [CLPTM1 peptide … (SEQ ID NO: 253)] | no binding |
| QAGPGGAPRVASRNLFPKDTG (biotinylated (position not given); C-terminal glycine not present in CLPTM1) [CLPTM1 peptide … (SEQ ID NO: 254)] | no binding |
| LMNLHVYISEHEHFTDFNATG (biotinylated (position not given); C-terminal glycine not present in CLPTM1) [CLPTM1 peptide … (SEQ ID NO: 255)] | no binding |
| SALFWEQHDLVYGDWTSGENG (biotinylated (position not given); C-terminal glycine not present in CLPTM1) [CLPTM1 peptide … (SEQ ID NO: 256)] | no binding |
| SDGCYEHFAELDIPQSVQQNG (biotinylated (position not given); C-terminal glycine not present in CLPTM1) [CLPTM1 peptide … (SEQ ID NO: 257)] | no binding |
